PubChem BioAssay AID602196 – INSERM – 2012

- Screen: 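Genes whose knock-down alters cisplatin killing of lung cancer cells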
- Cell system: human A549 lung cancer cells
- Reagent: siRNA pair against human genes
- Timing: 48 h transfection before cisplatin; time from cisplatin to read-out not stated
- Treatment: cisplatin at a dose killing half of control-siRNA cells; exact dose and duration not given
- Read-out: 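Cisplatin cell death as a shift from the 50% death seen with control siRNA; siRNAs toxic or growth-blocking alone scored 0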
- Direction: two-siRNA summed score (-2 to +2): higher = both siRNAs protect from cisplatin killing; -2 means both sensitise
- Rule for the call: 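Each siRNA scores 0 if harmful alone by LDH or WST-1, otherwise +1 if it reduces and -1 if it increases cisplatin killing; a gene is active when both siRNAs agree (sum +2 or -2)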
- Calls: active = both siRNAs shift cisplatin killing the same way; inactive = no consistent shift, or siRNA harmful alone
This is a random part of about 23,000 reagents tested. 455 of them (2%) were called active. 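Active includes both protection and sensitisation; some change values fall well beyond the stated -50 to +50 range.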 Entries without a mark were called inactive. Reagents against one gene are numbered here. Further read-outs or replicates are left out here. Not stated in the record: the amount of reagent.

two-siRNA summed score (-2 to +2), by gene and reagent
MAFA (MAF bZIP transcription factor A): #1 0
ADRB2 (adrenoceptor beta 2): #1 0
TMEM143 (transmembrane protein 143): #1 0
H3C3 (H3 clustered histone 3): #1 0
CNGA4 (cyclic nucleotide gated channel subunit alpha 4): #1 0
LOC388421: #1 0
PPP1R2 (protein phosphatase 1 regulatory inhibitor subunit 2): #1 -1
MNT (MAX network transcriptional repressor): #1 0
CFAP65 (cilia and flagella associated protein 65): #1 0; #2 0
PZP (PZP alpha-2-macroglobulin like): #1 0
TRAF4 (TNF receptor associated factor 4): #1 0
RFPL1 (ret finger protein like 1): #1 0
SLC25A21: #1 0
OR4M1 (olfactory receptor family 4 subfamily M member 1): #1 0
LOC440734: #1 0
HNRNPABP1 (heterogeneous nuclear ribonucleoprotein A/B pseudogene 1): #1 0
ACTG2 (actin gamma 2, smooth muscle): #1 0
CARMIL3 (capping protein regulator and myosin 1 linker 3): #1 0
RANBP3 (RAN binding protein 3): #1 0
HCG9 (HLA complex group 9): #1 1
UQCR11 (ubiquinol-cytochrome c reductase, complex III subunit XI): #1 0
CTAGE1 (cutaneous T cell lymphoma-associated antigen 1): #1 1
ANGEL1 (angel homolog 1): #1 0
DNM1L (dynamin 1L): #1 0
MAL (mal, T cell differentiation protein (MAL blood group)): #1 0
WDR48 (WD repeat domain 48): #1 0
SPACA6 (sperm acrosome associated 6): #1 0
LOC401442: #1 0
BIRC8 (baculoviral IAP repeat containing 8): #1 0
LOC389654: #1 0
FAM171B (family with sequence similarity 171 member B): #1 0
HIBADH (3-hydroxyisobutyrate dehydrogenase): #1 0
NAIP (NLR family apoptosis inhibitory protein): #1 0
AKT3 (AKT serine/threonine kinase 3): #1 1
HOXC6 (homeobox C6): #1 -1
TRAPPC14 (trafficking protein particle complex subunit 14): #1 1
SERPINA4 (serpin family A member 4): #1 0
PIK3AP1 (phosphoinositide-3-kinase adaptor protein 1): #1 0
IRX2-DT (IRX2 divergent transcript): #1 0
HIF1AN (hypoxia inducible factor 1 subunit alpha inhibitor): #1 0
POLR2I (RNA polymerase II subunit I): #1 0
FAM227B (family with sequence similarity 227 member B): #1 1
OR13C9 (olfactory receptor family 13 subfamily C member 9): #1 0
CMTR2 (cap methyltransferase 2): #1 0
CYYR1 (cysteine and tyrosine rich 1): #1 0
LOC339210: #1 0
LOC441612: #1 0
LOC387791 (retired record): #1 1
TAS2R60 (taste 2 receptor member 60): #1 0
EPB41L5 (erythrocyte membrane protein band 4.1 like 5): #1 0
HDAC1 (histone deacetylase 1): #1 -1
VRTN (vertebrae development associated): #1 0
TMEM182 (transmembrane protein 182): #1 0
GPR180 (G protein-coupled receptor 180): #1 -1
ECE1 (endothelin converting enzyme 1): #1 0
ADGB (androglobin): #1 0
